Results on eight molecules are retold here after US20230365684A1.

By UniProt entry, the sequences of proteins in these tests, tags left out. Where a name states a change or a piece, a line headed by the entry shows the natural chain unless it says otherwise. Residues count along the entry.
UniProt P20138: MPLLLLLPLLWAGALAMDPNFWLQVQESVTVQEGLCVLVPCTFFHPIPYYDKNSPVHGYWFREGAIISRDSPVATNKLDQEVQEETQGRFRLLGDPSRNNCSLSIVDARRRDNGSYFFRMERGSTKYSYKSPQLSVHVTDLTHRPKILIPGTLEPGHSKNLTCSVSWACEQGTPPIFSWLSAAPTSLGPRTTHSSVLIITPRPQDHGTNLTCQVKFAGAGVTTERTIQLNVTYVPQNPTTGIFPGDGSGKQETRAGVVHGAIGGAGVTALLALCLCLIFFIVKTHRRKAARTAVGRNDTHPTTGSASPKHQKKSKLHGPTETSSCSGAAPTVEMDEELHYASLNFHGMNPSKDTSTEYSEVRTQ
human CD33 on cells (MOLM-13, Kasumi-1, OCI-AML-3, Kasumi-3): residues 18-364 of P20138
CD33 plated on 96 well plates (binding ELISA of Example 20): residues 18-259 of P20138

Substitutions are numbered along the chain they refer to. No constants are given. Whether binding was seen depends on the method and setting. Some entries that bind do so weakly or less than the wild type.

In assay [1] the target is human CD33 on cells (MOLM-13, Kasumi-1, OCI-AML-3, Kasumi-3) (human) (UniProt P20138). Description: flow cytometry, Alexa Fluor 647-conjugated antibody incubated with cells at 37 °C and 4 °C for 2 to 24 hrs; cell line not named on the sheet [contd].
Assay [2] shares this target. Kind of assay: flow cytometry on MOLM-13 cells, 4 °C, detection with PE goat F(ab')2 anti-human IgG-Fc.
Assay [3] shares this target. Description: flow cytometry on Kasumi-1 cells, 4 °C, detection with PE goat F(ab')2 anti-human IgG-Fc [contd].
The target is the same in assay [4]. Description: flow cytometry on OCI-AML-3 cells, 4 °C, detection with PE goat F(ab')2 anti-human IgG-Fc [contd].
Assay [5] concerns the target CD33 plated on 96 well plates (binding ELISA of Example 20) (UniProt P20138). Kind of assay: ELISA on plated CD33, E. coli supernatant heated at 55/60/65 °C, luminescence as percent of RT.

B1: C33B836.006 (antibody, V domains shown)
VH: QVQLVQSGSELRKPGASVKVSCKASGYTFTNYAMNWVRQAPGQGLEWMGWINTNTGNPTYAQGFTGRFVFSLDTSVSSAYLQISSLKAEDTAMYYCATDRDRGTDYWGQGTLVTVSS
VL: QSALTQPASVSGSPGQSITISCTGTSSDVGDYNYVSWYQQHPGKVPKLMIYDVSNRPSGVSNRFSGSMSGNTASLTISGLQAEDEADYYCSSYSSSSALEVFGGGTKLTVL
Consider B1, for which the binding entry in assay [1], in assay [2], in assay [3] and in assay [4] was “binds” in each case.

B2: C33B1475VH1-2 (scFv)
scFv: DIVMTQSPLSLPVTPGEPASISCRSSQSLLHSDGYNYLDWYLQKSGQSPQLLIYLGSYRASGVPDRFSGSGSGTDFTLKISRVEAEDVGIYYCMQVLQTPWTFGQGTKVEIKGGSEGKSSGSGSESKSTGGSEVQLVESGGGLVQPGGSLRLSCVVSGFTFSSYWMTWVRQAPGKGLEWVANIKQGGSERYYVDSVKGRFTISRDSAKNSLYLQMNSLRAEDTAVYYCAREVGYNWNQGGYFDYWGQGTLVTVSS
Regarding B2, in assay [5], the binding entry was “binds”.

B3: C33B1475VH1-5 (scFv)
scFv: B2 scFv with G186Y
As to B3, in assay [5], the binding result is “binds”.

B4: C33B1475VH1-32 (scFv)
scFv: B2 scFv with G186L
Turning to B4, in assay [5], the binding entry was “binds”.

B5: C33B1475VH1-14 (scFv)
scFv: B2 scFv with G186N
For the molecule B5, the binding result in assay [5] is recorded as “binds”.

B6: C33B1475VH1-3 (scFv)
scFv: B2 scFv with G186A
Consider B6, for which the binding result in assay [5] is on record as “binds”.

B7: C33B1475VH1-27 (scFv)
scFv: B2 scFv with G186R
As to B7, in assay [5], the binding entry is reported as “binds”.

B8: C33B1475VH1-12 (scFv)
scFv: B2 scFv with G186P
For B8, the binding result in assay [5] is recorded as “binds”.
